Data reported in the supplement of paper PMC10849652.
The list shows a part of the results.

Sequences of proteins named here, by UniProt entry; tags and fusion partners are left off. A change or cut given only in a name is not applied to a line headed by its entry.
UniProt Q9UHD9, whole entry, looked up: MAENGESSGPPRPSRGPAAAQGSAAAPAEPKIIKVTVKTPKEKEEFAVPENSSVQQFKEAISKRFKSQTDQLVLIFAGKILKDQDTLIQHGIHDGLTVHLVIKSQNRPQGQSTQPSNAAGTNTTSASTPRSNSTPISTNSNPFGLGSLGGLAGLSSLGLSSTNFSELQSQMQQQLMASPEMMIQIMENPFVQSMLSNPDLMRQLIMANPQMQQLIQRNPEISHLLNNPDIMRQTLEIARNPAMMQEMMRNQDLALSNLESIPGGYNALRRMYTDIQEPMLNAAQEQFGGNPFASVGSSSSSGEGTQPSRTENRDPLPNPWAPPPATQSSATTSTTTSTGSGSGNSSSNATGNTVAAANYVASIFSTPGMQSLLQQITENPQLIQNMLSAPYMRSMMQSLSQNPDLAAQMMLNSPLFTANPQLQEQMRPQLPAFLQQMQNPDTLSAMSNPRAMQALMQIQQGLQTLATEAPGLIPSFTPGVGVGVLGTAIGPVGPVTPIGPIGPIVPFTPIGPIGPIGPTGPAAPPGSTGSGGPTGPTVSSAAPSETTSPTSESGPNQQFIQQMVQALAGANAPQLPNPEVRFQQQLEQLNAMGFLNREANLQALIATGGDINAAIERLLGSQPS
UniProt Q96RL1: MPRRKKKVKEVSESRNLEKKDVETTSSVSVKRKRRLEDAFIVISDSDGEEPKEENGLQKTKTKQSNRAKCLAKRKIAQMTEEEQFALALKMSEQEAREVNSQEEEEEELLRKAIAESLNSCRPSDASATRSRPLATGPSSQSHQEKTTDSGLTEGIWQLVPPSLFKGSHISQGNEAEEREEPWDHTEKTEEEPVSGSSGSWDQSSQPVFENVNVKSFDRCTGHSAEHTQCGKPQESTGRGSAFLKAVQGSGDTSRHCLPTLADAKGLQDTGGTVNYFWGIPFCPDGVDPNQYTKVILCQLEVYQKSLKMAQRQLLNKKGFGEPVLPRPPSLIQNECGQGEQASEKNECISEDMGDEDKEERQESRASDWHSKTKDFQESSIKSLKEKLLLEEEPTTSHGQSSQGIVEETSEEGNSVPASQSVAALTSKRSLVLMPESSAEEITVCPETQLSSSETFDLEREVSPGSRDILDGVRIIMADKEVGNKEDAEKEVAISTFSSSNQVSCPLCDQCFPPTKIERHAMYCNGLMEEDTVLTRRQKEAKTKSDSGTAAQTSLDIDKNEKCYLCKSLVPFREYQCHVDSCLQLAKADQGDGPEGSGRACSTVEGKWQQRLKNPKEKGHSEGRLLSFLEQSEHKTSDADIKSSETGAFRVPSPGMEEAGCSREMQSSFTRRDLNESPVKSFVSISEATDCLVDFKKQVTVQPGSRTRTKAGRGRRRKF
UniProt Q9H3U1: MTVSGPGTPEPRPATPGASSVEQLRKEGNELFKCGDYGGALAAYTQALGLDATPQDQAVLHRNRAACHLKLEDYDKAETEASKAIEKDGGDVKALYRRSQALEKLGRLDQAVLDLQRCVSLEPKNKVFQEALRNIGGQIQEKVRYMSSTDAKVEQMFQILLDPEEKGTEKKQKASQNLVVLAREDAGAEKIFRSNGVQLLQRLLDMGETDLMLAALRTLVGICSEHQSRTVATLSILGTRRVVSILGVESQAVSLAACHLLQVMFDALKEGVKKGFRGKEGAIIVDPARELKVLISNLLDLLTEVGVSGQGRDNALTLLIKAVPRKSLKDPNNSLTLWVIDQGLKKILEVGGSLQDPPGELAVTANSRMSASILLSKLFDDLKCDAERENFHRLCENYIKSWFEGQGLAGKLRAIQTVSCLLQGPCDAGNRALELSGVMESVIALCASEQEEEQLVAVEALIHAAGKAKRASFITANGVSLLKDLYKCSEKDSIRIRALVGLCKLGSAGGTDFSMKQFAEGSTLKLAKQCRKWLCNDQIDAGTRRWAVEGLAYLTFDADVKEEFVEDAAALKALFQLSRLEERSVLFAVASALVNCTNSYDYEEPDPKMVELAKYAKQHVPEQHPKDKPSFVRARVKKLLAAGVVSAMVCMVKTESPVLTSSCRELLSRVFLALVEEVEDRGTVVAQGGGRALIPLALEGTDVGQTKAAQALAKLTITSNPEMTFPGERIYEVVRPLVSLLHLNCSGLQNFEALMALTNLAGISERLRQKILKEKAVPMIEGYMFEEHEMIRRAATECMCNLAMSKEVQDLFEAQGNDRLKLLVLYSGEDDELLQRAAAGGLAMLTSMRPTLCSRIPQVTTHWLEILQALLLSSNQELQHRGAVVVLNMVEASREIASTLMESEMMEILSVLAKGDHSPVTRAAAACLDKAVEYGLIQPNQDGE
UniProt Q9P2Y5: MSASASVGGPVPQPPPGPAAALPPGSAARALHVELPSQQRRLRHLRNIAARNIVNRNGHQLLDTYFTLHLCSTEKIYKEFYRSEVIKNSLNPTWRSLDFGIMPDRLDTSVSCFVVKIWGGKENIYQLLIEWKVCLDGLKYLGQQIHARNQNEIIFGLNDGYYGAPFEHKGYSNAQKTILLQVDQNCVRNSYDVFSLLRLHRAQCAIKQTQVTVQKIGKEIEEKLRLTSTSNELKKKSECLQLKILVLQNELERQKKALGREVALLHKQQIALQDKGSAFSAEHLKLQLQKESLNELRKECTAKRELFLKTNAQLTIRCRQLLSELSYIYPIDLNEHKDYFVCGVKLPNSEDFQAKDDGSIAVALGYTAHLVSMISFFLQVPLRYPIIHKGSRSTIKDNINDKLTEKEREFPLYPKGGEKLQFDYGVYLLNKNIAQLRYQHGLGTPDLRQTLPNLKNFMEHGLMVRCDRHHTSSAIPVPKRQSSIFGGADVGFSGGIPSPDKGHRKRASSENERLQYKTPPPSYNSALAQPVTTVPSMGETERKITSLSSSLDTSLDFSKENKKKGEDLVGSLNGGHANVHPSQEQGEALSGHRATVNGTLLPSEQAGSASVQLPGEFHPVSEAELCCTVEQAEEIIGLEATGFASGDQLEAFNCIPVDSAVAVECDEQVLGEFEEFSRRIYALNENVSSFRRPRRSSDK
UniProt O94763, whole entry, looked up: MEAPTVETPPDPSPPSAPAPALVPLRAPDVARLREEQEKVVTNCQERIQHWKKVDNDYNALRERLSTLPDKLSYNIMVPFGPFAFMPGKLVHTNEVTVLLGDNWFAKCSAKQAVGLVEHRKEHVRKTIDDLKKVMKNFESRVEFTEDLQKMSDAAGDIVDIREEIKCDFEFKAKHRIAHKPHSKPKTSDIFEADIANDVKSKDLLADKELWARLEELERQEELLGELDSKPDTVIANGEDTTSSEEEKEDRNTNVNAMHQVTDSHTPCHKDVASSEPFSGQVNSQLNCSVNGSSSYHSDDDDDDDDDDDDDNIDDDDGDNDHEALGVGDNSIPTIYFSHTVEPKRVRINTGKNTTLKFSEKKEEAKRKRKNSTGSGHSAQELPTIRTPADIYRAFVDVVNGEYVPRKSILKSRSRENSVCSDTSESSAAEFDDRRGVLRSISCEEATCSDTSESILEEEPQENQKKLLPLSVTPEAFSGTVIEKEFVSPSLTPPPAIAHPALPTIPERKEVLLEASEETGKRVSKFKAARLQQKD
UniProt O75379: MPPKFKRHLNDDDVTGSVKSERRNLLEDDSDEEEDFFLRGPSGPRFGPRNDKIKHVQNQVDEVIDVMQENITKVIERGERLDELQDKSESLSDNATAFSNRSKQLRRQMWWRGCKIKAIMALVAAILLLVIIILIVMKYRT
UniProt O14949: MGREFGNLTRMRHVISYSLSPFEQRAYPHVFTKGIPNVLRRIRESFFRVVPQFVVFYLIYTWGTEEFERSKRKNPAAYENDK
UniProt Q8N806: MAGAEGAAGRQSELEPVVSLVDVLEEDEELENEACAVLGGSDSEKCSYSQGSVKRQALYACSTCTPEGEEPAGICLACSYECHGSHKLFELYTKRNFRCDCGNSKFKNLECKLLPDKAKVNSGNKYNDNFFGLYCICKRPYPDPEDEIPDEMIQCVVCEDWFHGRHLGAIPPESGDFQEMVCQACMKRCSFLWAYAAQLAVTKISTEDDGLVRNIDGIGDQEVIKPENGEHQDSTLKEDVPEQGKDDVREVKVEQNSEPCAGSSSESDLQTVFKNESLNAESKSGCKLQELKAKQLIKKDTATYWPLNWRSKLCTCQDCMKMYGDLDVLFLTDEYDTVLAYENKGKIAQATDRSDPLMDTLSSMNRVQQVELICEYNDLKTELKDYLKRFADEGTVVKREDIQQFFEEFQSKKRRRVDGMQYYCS
UniProt Q9BZX2: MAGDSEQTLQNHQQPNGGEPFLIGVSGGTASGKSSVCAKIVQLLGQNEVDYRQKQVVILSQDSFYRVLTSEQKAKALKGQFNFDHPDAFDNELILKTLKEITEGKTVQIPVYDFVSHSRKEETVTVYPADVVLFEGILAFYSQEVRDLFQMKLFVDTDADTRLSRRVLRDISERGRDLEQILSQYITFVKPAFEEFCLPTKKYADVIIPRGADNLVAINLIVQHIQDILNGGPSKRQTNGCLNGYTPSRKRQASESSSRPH
UniProt Q9P0L0: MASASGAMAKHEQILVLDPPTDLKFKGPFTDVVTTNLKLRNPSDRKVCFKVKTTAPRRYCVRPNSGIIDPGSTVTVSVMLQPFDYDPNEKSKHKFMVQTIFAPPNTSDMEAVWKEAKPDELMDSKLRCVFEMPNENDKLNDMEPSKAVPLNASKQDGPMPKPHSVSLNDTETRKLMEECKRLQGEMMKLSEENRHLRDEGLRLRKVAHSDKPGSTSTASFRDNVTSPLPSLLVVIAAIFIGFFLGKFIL
UniProt Q9Y5T5, whole entry, looked up: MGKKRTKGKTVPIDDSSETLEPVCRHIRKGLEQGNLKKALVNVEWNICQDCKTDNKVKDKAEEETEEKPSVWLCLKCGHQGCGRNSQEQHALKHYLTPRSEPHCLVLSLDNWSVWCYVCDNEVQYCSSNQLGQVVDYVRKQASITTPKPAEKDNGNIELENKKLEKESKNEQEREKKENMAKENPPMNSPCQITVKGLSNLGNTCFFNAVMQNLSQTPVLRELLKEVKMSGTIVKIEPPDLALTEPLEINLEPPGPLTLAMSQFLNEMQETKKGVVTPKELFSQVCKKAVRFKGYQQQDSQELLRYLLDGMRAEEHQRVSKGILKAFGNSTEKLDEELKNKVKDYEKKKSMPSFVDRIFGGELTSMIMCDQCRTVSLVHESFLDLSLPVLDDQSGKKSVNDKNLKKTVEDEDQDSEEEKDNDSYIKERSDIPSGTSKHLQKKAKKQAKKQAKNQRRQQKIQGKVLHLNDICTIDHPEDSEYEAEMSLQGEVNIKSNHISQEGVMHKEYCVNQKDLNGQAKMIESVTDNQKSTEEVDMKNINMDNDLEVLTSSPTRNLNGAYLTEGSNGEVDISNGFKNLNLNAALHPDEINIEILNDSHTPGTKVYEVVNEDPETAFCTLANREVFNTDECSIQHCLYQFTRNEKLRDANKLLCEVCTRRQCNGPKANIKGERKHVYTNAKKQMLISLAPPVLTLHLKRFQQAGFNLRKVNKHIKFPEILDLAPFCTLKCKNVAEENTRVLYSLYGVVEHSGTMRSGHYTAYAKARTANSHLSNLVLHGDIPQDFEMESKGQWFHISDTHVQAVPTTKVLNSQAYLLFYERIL
UniProt Q9NZ43: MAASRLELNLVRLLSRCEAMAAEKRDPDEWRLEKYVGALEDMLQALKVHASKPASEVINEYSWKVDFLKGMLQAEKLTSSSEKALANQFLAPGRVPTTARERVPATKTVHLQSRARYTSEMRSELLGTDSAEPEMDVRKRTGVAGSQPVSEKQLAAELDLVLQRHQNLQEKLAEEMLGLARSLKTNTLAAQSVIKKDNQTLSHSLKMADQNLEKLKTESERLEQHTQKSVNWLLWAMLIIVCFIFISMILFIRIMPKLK
UniProt Q14694, whole entry, looked up: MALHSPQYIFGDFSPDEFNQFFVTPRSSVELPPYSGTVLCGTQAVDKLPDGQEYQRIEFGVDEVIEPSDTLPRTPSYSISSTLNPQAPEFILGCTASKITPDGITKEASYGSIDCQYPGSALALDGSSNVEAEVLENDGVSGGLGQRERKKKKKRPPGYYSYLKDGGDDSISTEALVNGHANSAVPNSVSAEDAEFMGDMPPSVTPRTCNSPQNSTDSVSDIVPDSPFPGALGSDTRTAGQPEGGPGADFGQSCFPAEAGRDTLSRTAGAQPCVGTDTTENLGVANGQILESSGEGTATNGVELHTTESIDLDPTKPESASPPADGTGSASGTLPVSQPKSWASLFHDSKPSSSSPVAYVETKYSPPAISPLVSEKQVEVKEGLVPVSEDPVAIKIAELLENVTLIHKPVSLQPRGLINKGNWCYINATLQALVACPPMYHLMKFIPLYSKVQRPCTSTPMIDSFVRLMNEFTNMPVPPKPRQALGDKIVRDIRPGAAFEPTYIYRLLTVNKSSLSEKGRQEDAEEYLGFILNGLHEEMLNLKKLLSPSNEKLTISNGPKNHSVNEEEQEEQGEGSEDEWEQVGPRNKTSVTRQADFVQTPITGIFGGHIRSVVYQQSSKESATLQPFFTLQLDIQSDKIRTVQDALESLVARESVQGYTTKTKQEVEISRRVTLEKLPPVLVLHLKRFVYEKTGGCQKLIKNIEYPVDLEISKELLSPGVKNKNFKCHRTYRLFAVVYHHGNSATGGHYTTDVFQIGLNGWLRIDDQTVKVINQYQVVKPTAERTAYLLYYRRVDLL

Each target was assayed with C1COCCN1CCN2C3=CC=CC=C3N=C2NC(=O)C4=CC(=CC=C4)[N+](=O)[O-] [IRAK-1-4 Inhibitor I] (assay: log2 fold change, soluble protein after heating vs DMSO (PISA); higher = thermal stabilisation; K562 cells, 10 uM, 30 min; active = over 0.2 and 3.5 SD of the protein, either way, in both replicates (recomputed)).
Procedure, shortened: (§1)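 Values are thermal stability changes relative to control samples and are taken from duplicates. They are stated as log2 fold changes. Before quantification by TMTpro 16plex LC-MS/MS with equalised channel sums, K562 cells at 2×10^6 cells/mL were treated with 10 μM compound for 30 min, heated in aliquots for 3 min across 48°C-58°C, pooled, extracted in PBS with 0.5% NP-40 at 4°C, and centrifuged at 21,000xg for 90 min to give the soluble supernatant.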

log2 fold change, inactive:
UBQLN2 (UniProt Q9UHD9) 0.051, UQCC1 (UniProt Q9NVA1) 0.023, USP1 (UniProt O94782) -0.029, UCK1 (UniProt Q9HA47) -0.021, UCHL3 (UniProt P15374) 0.043, VAC14 (UniProt Q08AM6) 0.057, UTP15 (UniProt Q8TED0) -0.145, VAMP8 (UniProt Q9BV40) 0.052, VASP (UniProt P50552) -0.245, URGCP (UniProt Q8TCY9) -0.037, UBL5 (UniProt Q9BZL1) -0.03, UIMC1 (UniProt Q96RL1) -0.08, USP47 (UniProt Q96K76) -0.087, UNC13D isoform 3 (UniProt Q70J99) -0.129, UNC45A (UniProt Q9H3U1) -0.145, UVRAG (UniProt Q9P2Y5) 0.066, URI1 isoform 4 (UniProt O94763) 0.154, VAMP4 (UniProt O75379) 0.04, UQCRQ (UniProt O14949) 0.064, UBR7 (UniProt Q8N806) 0.049, UPF1 (UniProt Q92900) -0.01, UFC1 (UniProt Q9Y3C8) 0.005, UBE3C (UniProt Q15386) 0.019, UBXN4 (UniProt Q92575) -0.024, VAMP2 (UniProt P63027) 0.072, UCK2 (UniProt Q9BZX2) -0.004, VAPA (UniProt Q9P0L0) 0.017, UGGT2 (UniProt Q9NYU1) -0.091, UROS (UniProt P10746) 0.096, USP16 (UniProt Q9Y5T5) -0.075, UPF2 (UniProt Q9HAU5) -0.163, USE1 (UniProt Q9NZ43) -0.055, UBL7 (UniProt Q96S82) -0.064, UROD (UniProt P06132) 0.032, UQCRFS1 (UniProt P47985) 0.032, URI1 (UniProt O94763) -0.053, USP10 isoform 2 (UniProt Q14694) -0.067, USP30 (UniProt Q70CQ3) 0.039, UBFD1 (UniProt O14562) 0.033

The targets below were run with C=CC(=O)N1CCC[C@@H](n2nc(-c3ccc(Oc4ccccc4)cc3)c3c(N)ncnc32)C1 [ibrutinib] in the same assay as above.
Procedure, shortened: as §1

log2 fold change, inactive:
UBQLN2 (UniProt Q9UHD9) 0.011, UQCC1 (UniProt Q9NVA1) 0.04, USP1 (UniProt O94782) 0.04, UCK1 (UniProt Q9HA47) 0.043, UCHL3 (UniProt P15374) 0.001, VAC14 (UniProt Q08AM6) -0.009, UTP15 (UniProt Q8TED0) 0.023, VAMP8 (UniProt Q9BV40) 0.027, VASP (UniProt P50552) -0.076, URGCP (UniProt Q8TCY9) 0.01, UBL5 (UniProt Q9BZL1) 0.023, UIMC1 (UniProt Q96RL1) 0, USP47 (UniProt Q96K76) -0.004, UNC13D isoform 3 (UniProt Q70J99) -0.028, UNC45A (UniProt Q9H3U1) -0.054, UVRAG (UniProt Q9P2Y5) -0.022, URI1 isoform 4 (UniProt O94763) 0.014, VAMP4 (UniProt O75379) 0.024, UQCRQ (UniProt O14949) 0.02, UBR7 (UniProt Q8N806) -0.02, UPF1 (UniProt Q92900) 0.012, UFC1 (UniProt Q9Y3C8) 0.003, UBE3C (UniProt Q15386) 0.006, UBXN4 (UniProt Q92575) -0.011, VAMP2 (UniProt P63027) 0.051, UCK2 (UniProt Q9BZX2) 0.03, VAPA (UniProt Q9P0L0) -0.159, UGGT2 (UniProt Q9NYU1) -0.031, UROS (UniProt P10746) -0.042, USP16 (UniProt Q9Y5T5) -0.09, UPF2 (UniProt Q9HAU5) 0.008, USE1 (UniProt Q9NZ43) 0.017, UBL7 (UniProt Q96S82) -0.088, UROD (UniProt P06132) 0.019, UQCRFS1 (UniProt P47985) -0.026, URI1 (UniProt O94763) -0.015, USP10 isoform 2 (UniProt Q14694) 0.04, USP30 (UniProt Q70CQ3) -0.004, UBFD1 (UniProt O14562) -0.023
